These are yes or no findings as the source states them, for the method shown. For some assays here: In cells and extracts the contact can be indirect. Some binding calls cover weakened binding; strength is not graded here. For some assays here: Tags and fused reporters may be left off the sequences shown.
T1: Drosophila transcription factor bicoid (Drosophila) (UniProt P09081)
T1 sequence (looked up): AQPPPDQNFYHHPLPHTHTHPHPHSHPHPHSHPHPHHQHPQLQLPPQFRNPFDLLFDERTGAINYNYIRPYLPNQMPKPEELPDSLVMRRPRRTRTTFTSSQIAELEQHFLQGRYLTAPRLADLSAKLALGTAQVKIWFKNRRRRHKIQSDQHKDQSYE

Protein sequences, listed by entry. Tags and fused reporters are not part of them. Residues count along the entry.
UniProt P19438, residues 355-442: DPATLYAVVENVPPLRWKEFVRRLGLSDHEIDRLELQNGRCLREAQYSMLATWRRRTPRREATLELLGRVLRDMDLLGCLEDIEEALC


Experiments:
[1] = target: T1, Drosophila transcription factor bicoid (Drosophila); test: yeast interaction trap, panel of baits
[2] = target: TNF-R1-DD expressed as a GST fusion protein (UniProt P19438); test: pull-down on glutathione beads, Western blot with anti-MBP antibody

Binder | binding [1] | binding [2]
TNF-R1-DD ligand protein encoded by clone 1TU (ligand, not shown: large carriers) SLKANIPEVEAVLNTDRSLVCDGKRGLLTRLLQVMKKEPAESSFRFWQARAVESFLRGTTSYADQMFLLKRGLLEHILYCIVDSECKSRDVLQSYFDLLGELMKFNVDAFKRFNKYINTDAKFQVFLKQINSSLVDSNMLVRCVTLSLDRFENQVDMKVAEVLSECRLLAYISQVPTQMSFLFRLINIIHVQTLTQENVSCLNTSLVILMLARRKERLPLYLRLLQRMEHSKKYPGFLLNNFHNLLRFWQQHYLHKDKDSTCLENSSCISFSYWKETVSILLNPDRQSPSALVSYIEEPYMDIDRDFTEE | binds | 
MBP fusion protein containing 1TU (protein, not shown: large carriers) SLKANIPEVEAVLNTDRSLVCDGKRGLLTRLLQVMKKEPAESSFRFWQARAVESFLRGTTSYADQMFLLKRGLLEHILYCIVDSECKSRDVLQSYFDLLGELMKFNVDAFKRFNKYINTDAKFQVFLKQINSSLVDSNMLVRCVTLSLDRFENQVDMKVAEVLSECRLLAYISQVPTQMSFLFRLINIIHVQTLTQENVSCLNTSLVILMLARRKERLPLYLRLLQRMEHSKKYPGFLLNNFHNLLRFWQQHYLHKDKDSTCLENSSCISFSYWKETVSILLNPDRQSPSALVSYIEEPYMDIDRDFTEE |  | binds

— patent publication US20020164716A1
